Source: publication PMC7913854
Results are given in words; binding and its absence hold for the method and conditions named. Binding seen in cells or lysates may run through a third protein. These calls come from enrichment with a bait or labelling near it, and not all partners need be listed. Where a sequence is shown, tags or fusion partners need not be part of it.

Biological target: T1, human TLR8-HA (hTLR8-HA) (human) (UniProt Q9NR97)
T1 sequence: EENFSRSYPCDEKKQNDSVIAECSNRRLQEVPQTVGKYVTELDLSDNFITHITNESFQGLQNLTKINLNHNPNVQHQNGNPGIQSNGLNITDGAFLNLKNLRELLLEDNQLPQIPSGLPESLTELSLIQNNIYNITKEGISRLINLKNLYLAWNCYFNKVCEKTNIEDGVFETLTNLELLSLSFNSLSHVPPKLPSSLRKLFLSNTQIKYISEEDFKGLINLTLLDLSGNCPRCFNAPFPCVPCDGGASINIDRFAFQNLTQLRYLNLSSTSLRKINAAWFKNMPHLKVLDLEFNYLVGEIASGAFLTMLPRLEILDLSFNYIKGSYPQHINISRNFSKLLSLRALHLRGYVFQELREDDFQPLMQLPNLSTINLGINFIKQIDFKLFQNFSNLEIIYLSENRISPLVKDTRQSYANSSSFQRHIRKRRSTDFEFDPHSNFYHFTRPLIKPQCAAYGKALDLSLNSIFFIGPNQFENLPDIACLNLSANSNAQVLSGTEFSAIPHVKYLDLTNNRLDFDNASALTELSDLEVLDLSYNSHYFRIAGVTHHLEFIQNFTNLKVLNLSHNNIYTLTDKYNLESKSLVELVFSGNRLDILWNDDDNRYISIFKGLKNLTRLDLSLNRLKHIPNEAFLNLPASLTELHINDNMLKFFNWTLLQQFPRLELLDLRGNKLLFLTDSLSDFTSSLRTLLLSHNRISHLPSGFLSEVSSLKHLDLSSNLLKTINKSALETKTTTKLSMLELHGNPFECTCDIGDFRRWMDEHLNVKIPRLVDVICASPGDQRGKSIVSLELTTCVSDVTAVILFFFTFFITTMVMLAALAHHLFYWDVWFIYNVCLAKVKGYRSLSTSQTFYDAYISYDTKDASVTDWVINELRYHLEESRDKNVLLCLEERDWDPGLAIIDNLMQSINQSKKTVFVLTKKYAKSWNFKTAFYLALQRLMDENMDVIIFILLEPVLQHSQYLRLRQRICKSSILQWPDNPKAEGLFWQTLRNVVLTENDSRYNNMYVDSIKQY
Assay: affinity purification with mass spectrometry; anti-HA immunoprecipitation from HEK293 cells transfected with TLR4 with or without TLR8-HA, with and without stimulation; label-free quantitative MS, six experiments per group

B1: protein unc-93 homolog B1 (UNC93B1) (protein, UniProt Q9H1C4 1-597)
chain: MEAEPPLYPMAGAAGPQGDEDLLGVPDGPEAPLDELVGAYPNYNEEEEERRYYRRKRLGVLKNVLAASAGGMLTYGVYLGLLQMQLILHYDETYREVKYGNMGLPDIDSKMLMGINVTPIAALLYTPVLIRFFGTKWMMFLAVGIYALFVSTNYWERYYTLVPSAVALGMAIVPLWASMGNYITRMAQKYHEYSHYKEQDGQGMKQRPPRGSHAPYLLVFQAIFYSFFHLSFACAQLPMIYFLNHYLYDLNHTLYNVQSCGTNSHGILSGFNKTVLRTLPRSGNLIVVESVLMAVAFLAMLLVLGLCGAAYRPTEEIDLRSVGWGNIFQLPFKHVRDYRLRHLVPFFIYSGFEVLFACTGIALGYGVCSVGLERLAYLLVAYSLGASAASLLGLLGLWLPRPVPLVAGAGVHLLLTFILFFWAPVPRVLQHSWILYVAAALWGVGSALNKTGLSTLLGILYEDKERQDFIFTIYHWWQAVAIFTVYLGSSLHMKAKLAVLLVTLVAAAVSYLRMEQKLRRGVAPRQPRIPRPQHKVRGYRYLEEDNSDESDAEGEHGDGAEEEAPPAGPRPGPEPAGLGRRPCPYEQAQGGDGPEEQ
binding: binds
